According to the supplement of paper PMC11732987, “Enantioselective OTUD7B fragment discovery through chemoproteomics screening and high-throughput optimisation” (Communications Chemistry, 2025):
Some of the results follow. The data scatter; read single values as rough.

Chains of the proteins cited; added tags and fusions are not shown. Lines headed by an entry give the natural chain unless they say otherwise; changes in a name come on top.
UniProt Q8NFF5: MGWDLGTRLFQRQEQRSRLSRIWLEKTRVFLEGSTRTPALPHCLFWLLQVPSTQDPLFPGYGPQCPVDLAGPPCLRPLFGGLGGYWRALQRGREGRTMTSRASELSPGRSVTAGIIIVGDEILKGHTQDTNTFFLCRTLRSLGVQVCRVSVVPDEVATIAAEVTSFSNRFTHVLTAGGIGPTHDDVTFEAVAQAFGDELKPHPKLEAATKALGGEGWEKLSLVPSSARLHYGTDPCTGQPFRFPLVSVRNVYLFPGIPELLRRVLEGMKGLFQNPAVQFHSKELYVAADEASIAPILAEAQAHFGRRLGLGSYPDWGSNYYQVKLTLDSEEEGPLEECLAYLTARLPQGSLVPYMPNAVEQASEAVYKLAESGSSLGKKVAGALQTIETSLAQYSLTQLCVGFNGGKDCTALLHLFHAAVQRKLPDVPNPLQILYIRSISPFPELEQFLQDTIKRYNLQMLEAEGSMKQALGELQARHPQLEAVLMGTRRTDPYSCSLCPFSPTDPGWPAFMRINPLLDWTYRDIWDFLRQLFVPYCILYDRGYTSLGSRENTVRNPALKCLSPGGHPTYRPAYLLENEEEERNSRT
UniProt Q14CZ7: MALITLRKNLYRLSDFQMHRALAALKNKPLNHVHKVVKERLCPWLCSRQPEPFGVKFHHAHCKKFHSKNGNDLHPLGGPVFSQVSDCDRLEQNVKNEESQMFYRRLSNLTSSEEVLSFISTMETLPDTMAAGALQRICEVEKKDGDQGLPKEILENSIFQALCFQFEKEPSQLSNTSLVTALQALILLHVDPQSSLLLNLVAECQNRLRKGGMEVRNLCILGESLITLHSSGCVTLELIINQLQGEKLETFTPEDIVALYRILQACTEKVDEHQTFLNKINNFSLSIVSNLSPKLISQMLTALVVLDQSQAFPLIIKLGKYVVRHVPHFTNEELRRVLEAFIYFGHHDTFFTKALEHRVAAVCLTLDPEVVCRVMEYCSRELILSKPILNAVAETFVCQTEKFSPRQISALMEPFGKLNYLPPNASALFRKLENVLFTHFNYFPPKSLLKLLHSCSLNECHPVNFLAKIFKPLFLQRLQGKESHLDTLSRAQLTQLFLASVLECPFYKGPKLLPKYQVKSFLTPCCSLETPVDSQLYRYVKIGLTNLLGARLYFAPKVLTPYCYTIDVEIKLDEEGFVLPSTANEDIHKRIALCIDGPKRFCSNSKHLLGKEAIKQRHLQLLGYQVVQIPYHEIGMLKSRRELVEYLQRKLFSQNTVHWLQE
UniProt Q9Y324: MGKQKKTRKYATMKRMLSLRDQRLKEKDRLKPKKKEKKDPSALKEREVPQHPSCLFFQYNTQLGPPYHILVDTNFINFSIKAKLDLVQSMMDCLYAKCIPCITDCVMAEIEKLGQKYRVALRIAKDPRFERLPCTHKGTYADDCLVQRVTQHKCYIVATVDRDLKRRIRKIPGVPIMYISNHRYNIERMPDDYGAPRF
UniProt P51116, whole entry, looked up: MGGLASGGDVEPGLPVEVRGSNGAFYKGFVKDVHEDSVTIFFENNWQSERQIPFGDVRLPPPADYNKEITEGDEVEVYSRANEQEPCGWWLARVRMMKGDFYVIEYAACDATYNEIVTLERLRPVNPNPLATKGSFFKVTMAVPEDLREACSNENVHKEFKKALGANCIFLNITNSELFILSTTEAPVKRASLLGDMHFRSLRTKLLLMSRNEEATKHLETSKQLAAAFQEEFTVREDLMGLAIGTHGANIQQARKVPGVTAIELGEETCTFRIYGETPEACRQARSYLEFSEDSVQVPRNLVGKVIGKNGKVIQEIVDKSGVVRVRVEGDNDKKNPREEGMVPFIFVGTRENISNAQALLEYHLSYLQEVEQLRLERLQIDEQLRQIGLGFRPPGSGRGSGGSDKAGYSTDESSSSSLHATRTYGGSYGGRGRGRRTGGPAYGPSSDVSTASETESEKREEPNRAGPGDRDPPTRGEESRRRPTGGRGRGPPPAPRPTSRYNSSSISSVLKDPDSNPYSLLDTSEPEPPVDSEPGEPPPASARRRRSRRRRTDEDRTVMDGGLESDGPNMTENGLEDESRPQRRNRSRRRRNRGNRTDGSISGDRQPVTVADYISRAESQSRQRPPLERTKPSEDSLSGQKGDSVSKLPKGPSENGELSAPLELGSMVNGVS
UniProt Q96IG2: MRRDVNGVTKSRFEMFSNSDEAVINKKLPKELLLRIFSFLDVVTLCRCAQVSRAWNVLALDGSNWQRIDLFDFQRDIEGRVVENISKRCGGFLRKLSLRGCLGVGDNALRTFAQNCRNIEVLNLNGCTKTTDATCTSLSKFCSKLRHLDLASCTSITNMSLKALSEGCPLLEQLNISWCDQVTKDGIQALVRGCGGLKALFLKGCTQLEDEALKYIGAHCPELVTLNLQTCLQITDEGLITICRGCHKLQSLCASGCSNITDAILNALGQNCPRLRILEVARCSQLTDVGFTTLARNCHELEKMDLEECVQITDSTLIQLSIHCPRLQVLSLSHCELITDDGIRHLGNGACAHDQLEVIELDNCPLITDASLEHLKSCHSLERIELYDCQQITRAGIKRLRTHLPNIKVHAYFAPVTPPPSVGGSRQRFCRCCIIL
UniProt Q8NFG4: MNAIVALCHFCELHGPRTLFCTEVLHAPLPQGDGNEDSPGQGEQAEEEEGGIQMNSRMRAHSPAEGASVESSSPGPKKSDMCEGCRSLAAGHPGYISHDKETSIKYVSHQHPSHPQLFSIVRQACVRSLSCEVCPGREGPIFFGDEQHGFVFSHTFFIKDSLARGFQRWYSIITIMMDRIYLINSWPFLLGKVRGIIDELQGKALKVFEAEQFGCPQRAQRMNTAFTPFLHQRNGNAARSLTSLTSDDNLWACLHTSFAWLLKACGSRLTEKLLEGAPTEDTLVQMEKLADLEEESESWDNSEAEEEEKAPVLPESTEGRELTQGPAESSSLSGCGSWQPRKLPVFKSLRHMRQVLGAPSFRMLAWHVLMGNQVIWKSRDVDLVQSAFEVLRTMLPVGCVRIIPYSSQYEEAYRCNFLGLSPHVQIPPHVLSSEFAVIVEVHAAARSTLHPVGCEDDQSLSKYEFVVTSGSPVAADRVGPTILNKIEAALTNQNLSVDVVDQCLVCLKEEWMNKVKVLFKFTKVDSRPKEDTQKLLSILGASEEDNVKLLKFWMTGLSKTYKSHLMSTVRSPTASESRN
UniProt Q01543: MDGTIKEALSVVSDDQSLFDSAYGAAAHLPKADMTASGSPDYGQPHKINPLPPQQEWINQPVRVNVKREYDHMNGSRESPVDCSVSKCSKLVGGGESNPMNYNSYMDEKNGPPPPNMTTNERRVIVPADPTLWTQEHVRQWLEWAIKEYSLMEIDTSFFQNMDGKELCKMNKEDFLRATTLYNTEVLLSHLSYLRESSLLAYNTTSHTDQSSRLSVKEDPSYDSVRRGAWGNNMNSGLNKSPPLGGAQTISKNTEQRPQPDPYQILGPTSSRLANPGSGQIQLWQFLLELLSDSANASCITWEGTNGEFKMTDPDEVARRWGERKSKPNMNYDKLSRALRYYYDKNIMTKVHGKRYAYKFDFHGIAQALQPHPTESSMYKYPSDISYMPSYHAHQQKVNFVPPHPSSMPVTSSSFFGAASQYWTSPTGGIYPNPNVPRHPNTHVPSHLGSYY
UniProt O94915: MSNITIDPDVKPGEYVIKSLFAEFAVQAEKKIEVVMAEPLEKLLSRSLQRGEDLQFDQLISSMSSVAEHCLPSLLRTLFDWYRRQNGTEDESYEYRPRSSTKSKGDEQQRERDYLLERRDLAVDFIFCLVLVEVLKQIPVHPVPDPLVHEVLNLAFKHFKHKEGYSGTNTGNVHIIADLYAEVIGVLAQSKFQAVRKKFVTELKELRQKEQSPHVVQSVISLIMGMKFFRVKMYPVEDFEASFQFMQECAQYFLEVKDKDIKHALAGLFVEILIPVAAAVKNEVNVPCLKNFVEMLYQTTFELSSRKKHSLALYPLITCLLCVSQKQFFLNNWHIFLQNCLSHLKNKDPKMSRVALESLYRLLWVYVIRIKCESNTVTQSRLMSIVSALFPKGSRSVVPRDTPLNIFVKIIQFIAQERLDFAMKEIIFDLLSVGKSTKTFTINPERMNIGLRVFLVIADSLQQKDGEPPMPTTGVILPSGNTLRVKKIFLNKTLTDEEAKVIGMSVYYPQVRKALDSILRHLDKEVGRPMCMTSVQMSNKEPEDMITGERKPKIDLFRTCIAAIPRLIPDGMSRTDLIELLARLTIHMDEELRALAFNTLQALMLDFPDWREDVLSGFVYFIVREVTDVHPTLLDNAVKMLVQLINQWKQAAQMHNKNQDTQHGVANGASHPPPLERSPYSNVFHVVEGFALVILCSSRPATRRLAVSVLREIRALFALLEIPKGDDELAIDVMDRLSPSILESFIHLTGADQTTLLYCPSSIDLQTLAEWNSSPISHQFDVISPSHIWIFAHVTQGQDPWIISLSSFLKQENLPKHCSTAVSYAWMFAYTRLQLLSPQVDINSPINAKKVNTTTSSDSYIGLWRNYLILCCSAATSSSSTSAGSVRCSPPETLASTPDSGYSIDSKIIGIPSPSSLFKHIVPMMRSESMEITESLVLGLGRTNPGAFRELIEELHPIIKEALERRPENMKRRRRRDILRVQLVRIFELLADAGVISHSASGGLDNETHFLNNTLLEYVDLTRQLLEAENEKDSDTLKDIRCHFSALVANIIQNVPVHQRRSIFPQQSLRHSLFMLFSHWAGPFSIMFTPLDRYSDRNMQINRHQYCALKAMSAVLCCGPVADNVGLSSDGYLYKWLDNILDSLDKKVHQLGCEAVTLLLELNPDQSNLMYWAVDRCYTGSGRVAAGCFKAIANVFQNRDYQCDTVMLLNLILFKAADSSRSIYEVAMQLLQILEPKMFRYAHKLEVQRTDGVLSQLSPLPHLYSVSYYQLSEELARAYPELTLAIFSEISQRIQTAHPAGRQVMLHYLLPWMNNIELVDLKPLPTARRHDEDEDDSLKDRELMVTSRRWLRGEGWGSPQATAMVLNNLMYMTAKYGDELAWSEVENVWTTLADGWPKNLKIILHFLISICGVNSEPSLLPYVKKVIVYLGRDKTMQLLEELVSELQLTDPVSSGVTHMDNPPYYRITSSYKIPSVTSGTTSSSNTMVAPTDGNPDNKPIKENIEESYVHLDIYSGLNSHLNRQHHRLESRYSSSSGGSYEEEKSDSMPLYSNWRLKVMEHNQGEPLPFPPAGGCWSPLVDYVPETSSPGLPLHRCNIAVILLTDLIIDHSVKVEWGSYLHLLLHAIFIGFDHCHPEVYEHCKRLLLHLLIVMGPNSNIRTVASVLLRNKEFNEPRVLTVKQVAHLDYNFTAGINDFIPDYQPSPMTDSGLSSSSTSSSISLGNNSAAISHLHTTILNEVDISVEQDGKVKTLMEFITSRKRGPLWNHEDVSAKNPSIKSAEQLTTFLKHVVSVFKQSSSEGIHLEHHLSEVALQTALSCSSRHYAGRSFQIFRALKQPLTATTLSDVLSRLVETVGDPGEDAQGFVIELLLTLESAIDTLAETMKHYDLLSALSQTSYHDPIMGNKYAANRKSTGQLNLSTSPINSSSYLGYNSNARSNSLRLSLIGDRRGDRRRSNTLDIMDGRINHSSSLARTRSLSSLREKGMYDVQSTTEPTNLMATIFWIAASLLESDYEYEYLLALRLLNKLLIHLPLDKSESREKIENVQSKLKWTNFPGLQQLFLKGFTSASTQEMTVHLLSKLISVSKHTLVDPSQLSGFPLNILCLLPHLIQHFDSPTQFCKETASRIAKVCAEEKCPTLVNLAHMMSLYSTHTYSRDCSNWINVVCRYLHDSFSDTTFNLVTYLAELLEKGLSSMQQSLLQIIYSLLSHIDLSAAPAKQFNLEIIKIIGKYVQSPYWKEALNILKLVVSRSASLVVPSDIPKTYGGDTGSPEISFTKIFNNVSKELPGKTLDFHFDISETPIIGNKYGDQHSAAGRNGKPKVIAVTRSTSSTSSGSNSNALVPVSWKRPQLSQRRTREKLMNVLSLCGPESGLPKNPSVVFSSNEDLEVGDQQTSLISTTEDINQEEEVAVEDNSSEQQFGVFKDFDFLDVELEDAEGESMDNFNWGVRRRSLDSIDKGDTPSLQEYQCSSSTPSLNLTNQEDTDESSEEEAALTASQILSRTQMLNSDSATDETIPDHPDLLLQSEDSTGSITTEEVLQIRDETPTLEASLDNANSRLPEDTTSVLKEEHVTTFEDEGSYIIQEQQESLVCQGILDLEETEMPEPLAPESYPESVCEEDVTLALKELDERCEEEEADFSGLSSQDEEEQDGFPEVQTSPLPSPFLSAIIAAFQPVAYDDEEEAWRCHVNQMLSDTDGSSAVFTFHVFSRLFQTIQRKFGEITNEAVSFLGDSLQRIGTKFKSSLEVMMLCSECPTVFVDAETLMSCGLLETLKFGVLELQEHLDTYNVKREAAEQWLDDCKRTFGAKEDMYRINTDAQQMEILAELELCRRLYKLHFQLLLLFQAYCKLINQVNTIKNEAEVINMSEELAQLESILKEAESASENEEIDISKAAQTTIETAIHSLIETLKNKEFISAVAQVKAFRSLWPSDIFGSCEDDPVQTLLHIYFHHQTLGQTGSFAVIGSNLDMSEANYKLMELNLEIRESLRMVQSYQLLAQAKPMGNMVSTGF

What was measured:
[1] = compound: ClCC(=O)N[C@@H]1CCCc2ccccc12; assay: log2 mean competition ratio of IA-DTB cysteine labelling (DMSO/compound) (log2 ratio); higher = stronger cysteine engagement by compound; conditions: treatment time: 4 h, cell line lysate: HEK293T
Description: (§1)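 IA-DTB competitive cysteine chemoproteomics in HEK293T RIPA lysate. Lysates were treated with compound 29 or 30 at 50 or 200 µM for 4 h, then IA-DTB (500 µM, 1 h), trypsin-digested, NeutrAvidin-enriched and analysed by diaPASEF. Competition ratio = intensity DMSO / intensity compound (n=4 treated, n=64 DMSO); binding: mean log2 CR ≥ 1 and p ≤ 0.05 plus QC filters. Target is the cysteine site.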

[2] = compound: ClCC(=O)N[C@H]1CCCc2ccccc12; assay: as above; conditions: treatment time: 4 h, cell line lysate: HEK293T
Description: as §1

Row | Target | log2 mean competition ratio ([1]; 50 µM) | log2 mean competition ratio ([1]; 200 µM) | log2 mean competition ratio ([2]; 50 µM) | log2 mean competition ratio ([2]; 200 µM)
1 | FARSB C151 (UniProt Q9NSD9) | 0.118 | -0.107 | 0.179 | -0.227
2 | FUCA2 C277 (UniProt Q9BTY2) | 0.233 | 0.428 | 0.117 | 0.192
3 | FCHSD2 C354 (UniProt O94868) | 0.0532 | 0.0495 | -0.685 | 0.0502
4 | FLOT2 C56 (UniProt Q14254) | -0.251 | -0.217 | -0.0877 | -0.34
5 | FAT1 C674 (UniProt Q14517) | -0.23 | -0.194 | -0.3 | -0.112
6 | FZD3 C165 | -0.281 | -0.0542 | 0.141 | -0.146
7 | FBXO42 C403 (UniProt Q6P3S6) | 0.0409 | 0.129 | 0.239 | 0.224
8 | FKBP10 C222 (UniProt Q96AY3) | -0.233 | -0.0875 | -0.0219 | 0.248
9 | FLAD1 C147 (UniProt Q8NFF5) | 0.241 | -0.0286 | 0.0637 | 0.0305
10 | FASTKD3 C266 (UniProt Q14CZ7) | 0.0196 | -0.0505 | -0.286 | -0.0827
11 | FOXF2 C157 | 0.326 | 0.637 | -0.0821 | 0.578
12 | FTO C326 (UniProt Q9C0B1) | -0.247 | -0.0281 | 0.109 | 0.118
13 | FCF1 C144 (UniProt Q9Y324) | -0.0304 | 0.0566 | -0.0828 | 0.163
14 | FBXO17 C114 | -0.0265 | -0.353 | 0.398 | -0.309
15 | FLII C1067 (UniProt Q13045) | -0.103 | 0.0871 | 0.122 | 0.0599
16 | FARS2 C344 (UniProt O95363) | -0.129 | -0.172 | -0.0109 | -0.0775
17 | FYN C404 (UniProt P06241) | 0.12 | 0.137 | -0.487 | 0.164
18 | FIP1L1 C216 (UniProt Q6UN15) | -0.469 | -0.127 | 0.162 | -0.103
19 | FTO C171 (UniProt Q9C0B1) | -0.117 | -0.184 | 0.203 | 0.0158
20 | FXR2 C282 (UniProt P51116) | -0.0818 | 0.235 | -0.13 | 0.202
21 | FLNC C1066 (UniProt Q14315) | -0.00469 | 0.218 | -0.279 | 0.226
22 | GART C291 | 0.105 | 0.252 | 0.388 | 0.315

Row | Target | log2 mean competition ratio ([1]; 50 µM) | log2 mean competition ratio ([1]; 200 µM) | log2 mean competition ratio ([2]; 50 µM) | log2 mean competition ratio ([2]; 200 µM)
23 | FBXL20 C127 (UniProt Q96IG2) | 0.273 | 0.228 | 0.248 | 0.299
24 | FUBP3 C366 (UniProt Q96I24) | -0.0215 | -0.0658 | 0.0432 | 0.0133
25 | FZD6 C161 (UniProt O60353) | -0.0445 | 0.0622 | -0.108 | 0.311
26 | FDXR C105 (UniProt P22570) | 0.113 | -0.0454 | 0.125 | 0.0456
27 | GAB1 C213 (UniProt Q13480) | -0.12 | -0.0608 | -0.266 | -0.278
28 | FLCN C454 (UniProt Q8NFG4) | -0.0626 | -0.124 | -0.399 | -0.0988
29 | FLNB C2537 (UniProt O75369) | -0.145 | 0.181 | -0.0855 | 0.271
30 | GALT C75 (UniProt P07902) | -0.266 | 0.268 | -0.38 | 0.218
31 | FBXO45 C98 (UniProt P0C2W1) | -0.197 | -0.378 | -0.418 | -0.225
32 | FASTKD2 C377 (UniProt Q9NYY8) | 0.551 | 1.53 | 0.836 | 1.59
33 | FASN C1828 | 0.412 | 0.43 | -0.0397 | 0.189
34 | FCSK C582 (UniProt Q8N0W3) | -0.163 | 0.457 | -0.687 | 0.0726
35 | FLI1 C83 (UniProt Q01543) | -0.0506 | 0.284 | -0.0475 | 0.36
36 | FASN C212 | -0.118 | 0.14 | -0.231 | 0.124
37 | FRYL C2803 (UniProt O94915) | -0.539 | -0.186 | -0.384 | 0.11
38 | FBXO44;FBXO6 C30;(C37) | -0.0341 | 0.295 | 0.0377 | 0.239
39 | FHOD3 C347 | -0.138 | 0.00448 | -0.288 | -0.0572
40 | FKBP10 C110 (UniProt Q96AY3) | -0.00616 | 0.0822 | 0.146 | 0.213
41 | FRYL C288 (UniProt O94915) | 0.0829 | 0.0401 | 0.504 | 0.218
42 | GARRE1 C512 | 0.109 | 0.134 | 0.154 | -0.131
43 | FXR1 C129 (UniProt P51114) | 0.0768 | -0.163 | -0.246 | -0.11
44 | FASN C1471 | -0.429 | -0.0631 | 0.374 | -0.188

Reformatted as a markdown table: entries from further up

| Row | Target | log2 mean competition ratio ([1]; 50 µM) | log2 mean competition ratio ([1]; 200 µM) | log2 mean competition ratio ([2]; 50 µM) | log2 mean competition ratio ([2]; 200 µM) |
| --- | --- | --- | --- | --- | --- |
| 37 | FRYL C2803 (UniProt O94915) | -0.539 | -0.186 | -0.384 | 0.11 |
| 38 | FBXO44;FBXO6 C30;(C37) | -0.0341 | 0.295 | 0.0377 | 0.239 |
